This assay has as its target T1, constitutive 20S proteolytic subunit β5 (mouse (endogenous in MIN6)) (UniProt O55234).
T1 sequence: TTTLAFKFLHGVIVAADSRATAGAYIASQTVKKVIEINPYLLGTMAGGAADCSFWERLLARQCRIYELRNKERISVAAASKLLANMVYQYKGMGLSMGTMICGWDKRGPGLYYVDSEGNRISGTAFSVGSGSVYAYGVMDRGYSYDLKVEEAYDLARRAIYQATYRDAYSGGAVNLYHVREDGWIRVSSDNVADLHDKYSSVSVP
The experiment in a line: co-IP; MIN6 whole cell extract (extraction buffer with 200 mM KCl, 2 mM ATP, 0.5% Triton X-100), cells untreated or treated 24 hours with 150 units/ml IFNβ; 70 μg extract with 50 μg rabbit IgG to β5 C-terminal peptide, β5i C-terminal peptide or β5i middle part, or pre-immune control IgG, and Protein A beads, 1 hour at 4°C, washed with TBST; Western blot. A general note: A western blot detects proteins with antibodies after separation by electrophoresis.

Results are given in words; binding and its absence hold for the method and conditions named. Binding seen in cells or lysates may run through a third protein. Some binding calls cover weakened binding; strength is not graded here.

B1: inducible (immune) 20S proteolytic subunit β5i (protein, UniProt P28063 73-276)
chain: TTTLAFKFQHGVIVAVDSRATAGSYISSLRMNKVIEINPYLLGTMSGCAADCQYWERLLAKECRLYYLRNGERISVSAASKLLSNMMLQYRGMGLSMGSMICGWDKKGPGLYYVDDNGTRLSGQMFSTGSGNTYAYGVMDSGYRQDLSPEEAYDLGRRAIAYATHRDNYSGGVVNMYHMKEDGWVKVESSDVSDLLYKYGEAAL
Take B1: the binding entry is on record as “binds”.

The values above are taken from paper PMC3562186.
